Source: publication PMC12715529 (ACS Bio & Med Chem Au, 2025)

Assays:
Format in all cases: cell-based
[1] = tested on: A431 cells; assay: Two-photon fluorescence lifetime imaging (MP FLIM) of living A431 cells
[2] = tested on: PC-3 cells; assay: Confocal laser-scanning microscopy, cellular uptake and localization; settings: for subcellular localization: organelle-specific staining / confocal fluorescence
[3] = tested on: PC-3 cells; assay: Two-photon fluorescence lifetime imaging (MP FLIM) of living PC-3 cells; settings: PC-3, 18 h, 100 µM in 1:99 DMSO:serum-free medium, λex 810 nm
[4] = tested on: PC-3 cells; assay: Colocalisation with Lysotracker Blue DND-22, scatterplot analysis; settings: PC-3, 18 h, 37 °C, 100 µM + 100 nM Lysotracker Blue DND-22
[5] = A431, overnight 37 °C, 100 μM in 1:99 DMSO/serum-free medium, λex 810 nm
[6] = Blue ROI, overlay a (blue Lysotracker channel vs green)
[7] = Blue ROI, overlay b (blue Lysotracker channel vs red; red λex 488 nm, L-6 561 nm)
[8] = Blue ROI, overlay c (green vs red channel)
[9] = Green ROI, overlay a (blue Lysotracker channel vs green)
[10] = Green ROI, overlay b (blue Lysotracker channel vs red; red λex 488 nm, L-6 561 nm)
[11] = Green ROI, overlay c (green vs red channel)
[12] = Red ROI, overlay a (blue Lysotracker channel vs green)
[13] = Red ROI, overlay b (blue Lysotracker channel vs red; red λex 488 nm, L-6 561 nm)
[14] = Red ROI, overlay c (green vs red channel)

## CC(C)C[C@H](NC(=O)[C@H](Cc1c[nH]cn1)NC(=O)CNC(=O)[C@@H](NC(=O)[C@H](C)NC(=O)[C@H](Cc1c[nH]c2ccccc12)NC(=O)[C@H](CCC(N)=O)NC(=O)[C@H](Cc1ccc(I)cc1)N1C(=O)c2ccc3c4c(ccc(c24)C1=O)C(=O)N([C@@H](Cc1ccc(I)cc1)C(=O)ON1C(=O)CCC1=O)C3=O)C(C)C)C(N)=O [L-3]
[1]; [5]
  FLIM first lifetime distribution (τ1): 0.95 ± 0.06 ns
  FLIM second lifetime distribution (τ2): 2.16 ± 0.08 ns
[2]
  subcellular localization: localize more in the lysosomes of PC-3 cells than in the nucleus or cytosol
[3]
  FLIM τ1: 2.66±0.04 ns
  FLIM τ2: 0.00±0.00 ns
[4]; [6]
  Correlation coeff. c1: 1.00
  Correlation coeff. c2: 0.84
  Mander’s overlap: 0.72
  Mander’s overlap coeff. k1: 0.71
  Mander’s overlap coeff. k2: 0.73
  Pearson’s correlation: 0.63
[4]; [7]
  Correlation coeff. c1: 0.99
  Correlation coeff. c2: 1.00
  Mander’s overlap: 0.73
  Mander’s overlap coeff. k1: 0.06
  Mander’s overlap coeff. k2: 8.22
  Pearson’s correlation: 0.71
[4]; [8]
  Correlation coeff. c1: 0.75
  Correlation coeff. c2: 1.00
  Mander’s overlap: 0.63
  Mander’s overlap coeff. k1: 0.06
  Mander’s overlap coeff. k2: 7.06
  Pearson’s correlation: 0.92
[4]; [9]
  Correlation coeff. c1: 1.00
  Correlation coeff. c2: 0.82
  Mander’s overlap: 0.71
  Mander’s overlap coeff. k1: 0.85
  Mander’s overlap coeff. k2: 0.60
  Pearson’s correlation: 0.61
[4]; [10]
  Correlation coeff. c1: 1.00
  Correlation coeff. c2: 1.00
  Mander’s overlap: 0.79
  Mander’s overlap coeff. k1: 0.08
  Mander’s overlap coeff. k2: 7.66
  Pearson’s correlation: 0.71
[4]; [11]
  Correlation coeff. c1: 0.75
  Correlation coeff. c2: 1.00
  Mander’s overlap: 0.62
  Mander’s overlap coeff. k1: 0.05
  Mander’s overlap coeff. k2: 7.14
  Pearson’s correlation: 0.92
[4]; [12]
  Correlation coeff. c1: 1.00
  Correlation coeff. c2: 0.84
  Mander’s overlap: 0.79
  Mander’s overlap coeff. k1: 0.82
  Mander’s overlap coeff. k2: 0.77
  Pearson’s correlation: 0.75
[4]; [13]
  Correlation coeff. c1: 1.00
  Correlation coeff. c2: 1.00
  Mander’s overlap: 0.76
  Mander’s overlap coeff. k1: 0.10
  Mander’s overlap coeff. k2: 5.78
  Pearson’s correlation: 0.79
[4]; [14]
  Correlation coeff. c1: 0.74
  Correlation coeff. c2: 1.00
  Mander’s overlap: 0.64
  Mander’s overlap coeff. k1: 0.08
  Mander’s overlap coeff. k2: 5.00
  Pearson’s correlation: 0.95

## CC1=CC(C)=[N+]2C1=C(c1ccc(C(=O)NCCN3C(=O)c4ccc5c6c(ccc(c46)C3=O)C(=O)N([C@@H](CCC(N)=O)C(=O)N[C@@H](Cc3c[nH]c4ccccc34)C(=O)N[C@@H](C)C(=O)N[C@H](C(=O)NCC(=O)N[C@@H](Cc3c[nH]cn3)C(=O)N[C@@H](CC(C)C)C(N)=O)C(C)C)C5=O)cc1)c1c(C)cc(C)n1[B-]2(F)F [L-6]
[1]; A431, 50 μM in 1:99 DMSO/serum-free medium, λex 910 nm
  FLIM single lifetime decay distribution: 2.66 ± 0.04 ns
[2]; 50 μM in 1:99 DMSO:serum-free medium, 37 °C
  fluorescence emission in cells visible after incubation time: visible after 20 min of incubation
[2]
  subcellular localization: endoplasmic reticulum (ER) localization additionally to the membrane aggregation and lysosomal uptake
[4]; [6]
  Correlation coeff. c1: 1.00
  Correlation coeff. c2: 0.99
  Mander’s overlap: 0.79
  Mander’s overlap coeff. k1: 0.03
  Mander’s overlap coeff. k2: 24.72
  Pearson’s correlation: 0.51
[4]; [7]
  Correlation coeff. c1: 0.97
  Correlation coeff. c2: 0.99
  Mander’s overlap: 0.58
  Mander’s overlap coeff. k1: 0.67
  Mander’s overlap coeff. k2: 0.51
[4]; [8]
  Correlation coeff. c1: 1.00
  Correlation coeff. c2: 0.99
  Mander’s overlap: 0.74
  Mander’s overlap coeff. k1: 0.43
  Mander’s overlap coeff. k2: 1.27
  Pearson’s correlation: 0.35
[4]; [9]
  Correlation coeff. c1: 1.00
  Correlation coeff. c2: 0.99
  Mander’s overlap: 0.79
  Mander’s overlap coeff. k1: 0.03
  Mander’s overlap coeff. k2: 19.29
  Pearson’s correlation: 0.43
[4]; [10]
  Correlation coeff. c1: 1.00
  Correlation coeff. c2: 1.00
  Mander’s overlap: 0.79
  Mander’s overlap coeff. k1: 13.63
  Mander’s overlap coeff. k2: 0.05
  Pearson’s correlation: 0.42
[4]; [11]
  Correlation coeff. c1: 1.00
  Correlation coeff. c2: 0.98
  Mander’s overlap: 0.80
  Mander’s overlap coeff. k1: 0.57
  Mander’s overlap coeff. k2: 1.15
  Pearson’s correlation: 0.54
[4]; [12]
  Correlation coeff. c1: 1.00
  Correlation coeff. c2: 0.98
  Mander’s overlap: 0.68
  Mander’s overlap coeff. k1: 0.04
  Mander’s overlap coeff. k2: 11.45
  Pearson’s correlation: 0.24
[4]; [13]
  Correlation coeff. c1: 1.00
  Correlation coeff. c2: 1.00
  Mander’s overlap: 0.71
  Mander’s overlap coeff. k1: 8.13
  Mander’s overlap coeff. k2: 0.06
  Pearson’s correlation: 0.25
[4]; [14]
  Correlation coeff. c1: 1.00
  Correlation coeff. c2: 0.98
  Mander’s overlap: 0.83
  Mander’s overlap coeff. k1: 0.56
  Mander’s overlap coeff. k2: 1.23
  Pearson’s correlation: 0.40

## QWAVGHL [L-2, bombesin [7,13] fragment peptide made by solid-phase synthesis from L-amino acids]
[4]; [6]
  Correlation coeff. c1: 0.92
  Correlation coeff. c2: 0.45
  Mander’s overlap: 0.40
  Mander’s overlap coeff. k1: 0.49
  Mander’s overlap coeff. k2: 0.32
  Pearson’s correlation: 0.34
[4]; [7]
  Correlation coeff. c1: 0.82
  Correlation coeff. c2: 1.00
  Mander’s overlap: 0.56
  Mander’s overlap coeff. k1: 0.05
  Mander’s overlap coeff. k2: 6.54
  Pearson’s correlation: 0.36
[4]; [8]
  Correlation coeff. c1: 1.00
  Correlation coeff. c2: 0.36
  Mander’s overlap: 0.35
  Mander’s overlap coeff. k1: 5.06
  Mander’s overlap coeff. k2: 0.02
  Pearson’s correlation: 0.66
[4]; [9]
  Correlation coeff. c1: 0.95
  Correlation coeff. c2: 0.56
  Mander’s overlap: 0.50
  Mander’s overlap coeff. k1: 0.95
  Mander’s overlap coeff. k2: 0.27
  Pearson’s correlation: 0.47
[4]; [10]
  Correlation coeff. c1: 0.87
  Correlation coeff. c2: 1.00
  Mander’s overlap: 0.51
  Mander’s overlap coeff. k1: 0.09
  Mander’s overlap coeff. k2: 2.85
  Pearson’s correlation: 0.55
[4]; [11]
  Correlation coeff. c1: 1.00
  Correlation coeff. c2: 0.35
  Mander’s overlap: 0.36
  Mander’s overlap coeff. k1: 3.84
  Mander’s overlap coeff. k2: 0.03
  Pearson’s correlation: 0.85
[4]; [12]
  Correlation coeff. c1: 0.97
  Correlation coeff. c2: 0.63
  Mander’s overlap: 0.55
  Mander’s overlap coeff. k1: 1.09
  Mander’s overlap coeff. k2: 0.28
  Pearson’s correlation: 0.48
[4]; [13]
  Correlation coeff. c1: 0.88
  Correlation coeff. c2: 1.00
  Mander’s overlap: 0.57
  Mander’s overlap coeff. k1: 0.10
  Mander’s overlap coeff. k2: 3.25
  Pearson’s correlation: 0.54
[4]; [14]
  Correlation coeff. c1: 1.00
  Correlation coeff. c2: 0.44
  Mander’s overlap: 0.44
  Mander’s overlap coeff. k1: 5.00
  Mander’s overlap coeff. k2: 0.04
  Pearson’s correlation: 0.83
